Laboratory results published in the supplement of paper PMC8728848.
Some of the results follow.

Key:
Experiment in all cases: glycan array binding signal (z-score within array); higher = stronger binding
Details in all cases: glycan notation: IUPAC condensed, linker removed
GlcNAc(b1-3)Man = target: GlcNAc(b1-3)Man
Outline: (§1)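 Columns mapping to the same glycan were averaged after glycan names were converted to IUPAC-condensed notation. The data come from 3228 arrays in the Consortium for Functional Glycomics database, limited to those with an available protein sequence. Binding is reported as a within-array Z-score averaged across arrays of one protein sequence and across linkers.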

[1] = target: GlcNAc(b1-3)[GlcNAc(b1-4)][GlcNAc(b1-6)]GlcNAc
Outline: as §1

[2] = target: GlcNAc(b1-3)[GlcNAc(b1-6)]Gal(b1-4)GlcNAc
Outline: as §1

[3] = target: GlcNAc(b1-3)[GlcNAc(b1-6)]GalNAc
Outline: as §1

[4] = target: GlcNAc(b1-4)Gal(b1-4)GlcNAc
Outline: as §1

GlcNAc(b1-4)GlcNAc = target: GlcNAc(b1-4)GlcNAc
Outline: as §1

[5] = target: GlcNAc(b1-4)GlcNAc(b1-4)GlcNAc
Outline: as §1

[6] = target: GlcNAc(b1-4)GlcNAc(b1-4)GlcNAc(b1-4)GlcNAc(b1-4)GlcNAc
Outline: as §1

[7] = target: GlcNAc(b1-4)GlcNAc(b1-4)GlcNAc(b1-4)GlcNAc(b1-4)GlcNAc(b1-4)GlcNAc
Outline: as §1

[8] = target: GlcNAc(b1-4)[GlcNAc(b1-6)]GalNAc
Outline: as §1

[9] = target: GlcNAc(b1-6)Gal(b1-4)GlcNAc
Outline: as §1

GlcNAc(b1-6)GalNAc = target: GlcNAc(b1-6)GalNAc
Outline: as §1

[10] = target: GlcNAc6S(b1-3)Gal(b1-4)GlcNAc
Outline: as §1

Kdn(a2-3)Gal(b1-3)GalNAc = target: Kdn(a2-3)Gal(b1-3)GalNAc
Outline: as §1

Kdn(a2-3)Gal(b1-3)GlcNAc = target: Kdn(a2-3)Gal(b1-3)GlcNAc
Outline: as §1

Kdn(a2-3)Gal(b1-4)Glc = target: Kdn(a2-3)Gal(b1-4)Glc
Outline: as §1

Kdn(a2-3)Gal(b1-4)GlcNAc = target: Kdn(a2-3)Gal(b1-4)GlcNAc
Outline: as §1

[11] = target: Kdn(a2-3)Gal(b1-4)[Fuc(a1-3)]GlcNAc
Outline: as §1

Kdn(a2-6)Gal(b1-4)GlcNAc = target: Kdn(a2-6)Gal(b1-4)GlcNAc
Outline: as §1

[12] = target: Man(a1-2)Man(a1-2)Man(a1-3)Man
Outline: as §1

[13] = target: Man(a1-2)Man(a1-2)Man(a1-6)[Man(a1-3)]Man
Outline: as §1

Man(a1-2)Man(a1-3)Man = target: Man(a1-2)Man(a1-3)Man
Outline: as §1

[14] = target: Man(a1-2)Man(a1-3)[Man(a1-2)Man(a1-6)]Man
Outline: as §1

[15] = target: Man(a1-2)Man(a1-3)[Man(a1-2)Man(a1-6)]Man(a1-6)[Man(a1-2)Man(a1-2)Man(a1-3)]Man
Outline: as §1

[16] = target: Man(a1-2)Man(a1-3)[Man(a1-2)Man(a1-6)]Man(a1-6)[Man(a1-2)Man(a1-2)Man(a1-3)]Man(b1-4)GlcNAc(b1-4)GlcNAc
Outline: as §1

[17] = target: Man(a1-2)Man(a1-3)[Man(a1-6)]Man(a1-6)[Man(a1-2)Man(a1-3)]Man(b1-4)GlcNAc(b1-4)GlcNAc
Outline: as §1

[18] = target: Man(a1-2)Man(a1-6)[Man(a1-3)]Man(a1-6)[Man(a1-2)Man(a1-2)Man(a1-3)]Man
Outline: as §1

[19] = target: Man(a1-2)Man(a1-6)[Man(a1-3)]Man(a1-6)[Man(a1-2)Man(a1-2)Man(a1-3)]Man(b1-4)GlcNAc(b1-4)GlcNAc
Outline: as §1

Man(a1-3)[Man(a1-6)]Man = target: Man(a1-3)[Man(a1-6)]Man
Outline: as §1

[20] = target: Man(a1-3)[Man(a1-6)]Man(a1-6)[Man(a1-2)Man(a1-3)]Man(b1-4)GlcNAc(b1-4)GlcNAc
Outline: as §1

[21] = target: Man(a1-3)[Man(a1-6)]Man(a1-6)[Man(a1-3)]Man
Outline: as §1

[22] = target: Man(a1-3)[Man(a1-6)]Man(a1-6)[Man(a1-3)]Man(b1-4)GlcNAc(b1-4)GlcNAc
Outline: as §1

[23] = target: Man(a1-3)[Man(a1-6)]Man(b1-4)GlcNAc(b1-4)GlcNAc
Outline: as §1

[24] = target: Man(a1-3)[Man(a1-6)]Man(b1-4)GlcNAc(b1-4)[Fuc(a1-6)]GlcNAc
Outline: as §1

Man(a1-6)Man = target: Man(a1-6)Man
Outline: as §1

Man(b1-4)GlcNAc = target: Man(b1-4)GlcNAc
Outline: as §1

MurNAc(b1-4)GlcNAc = target: MurNAc(b1-4)GlcNAc
Outline: as §1

Neu5Ac(a2-3)Gal = target: Neu5Ac(a2-3)Gal
Outline: as §1

B1: GS7807G-bfa-506-18-506 (Bacteroides fragilis) (protein)
chain: ASCDKFDEINTDPDATTKVTSSLLATGLLLDITSSSASKSFIYDELLAKQMAWGESMEDYQYNVFGRSGFGGYTTLINAQKMVESVSDDNVNAYDGLAHFIKAYKIFYMSMEMGDLPYEEALQGELGLVRPKYNTQKEVMNFILSDLETAYELFSTAKDFDGDPILGGSISKWKKATTAFQLKVLMHLSKKESDADLKVKERFARIVASGSLMESNEDNLQMKYADKANTVYPFHNTNTKHAGYAMLSTMLIDKFKATGDIRMFYYAKPAKAKLNEGVTADSWDAYIGTDPSLPFEQIEKAYATEQYSGFNARYTDYPSGEPVVRLGYAEQNFILAEAAVRGWISGDASAYYKKAIRAHMEFIASNTPDEEVYHHGHPITEEAIAAFLETPAIQLSGEKEEDIEKILTQRYLASFMQHPYDVYYDYRRTGYPVLPINPATNRNTMNDRLPMRWMYPKSESDYNLEHQNEALERQFGGVDDVNKLMWILQ
- glycan array binding signal (z-score) (GlcNAc(b1-3)Man): -0.485
- glycan array binding signal (z-score) [1]: -0.584
- glycan array binding signal (z-score) [2]: -0.679
- glycan array binding signal (z-score) [3]: -0.871
- glycan array binding signal (z-score) [4]: -0.511
- glycan array binding signal (z-score) (GlcNAc(b1-4)GlcNAc): -0.628
- glycan array binding signal (z-score) [5]: 0.019
- glycan array binding signal (z-score) [6]: -0.896
- glycan array binding signal (z-score) [7]: -0.22
- glycan array binding signal (z-score) [8]: -0.758
- glycan array binding signal (z-score) [9]: -0.682
- glycan array binding signal (z-score) (GlcNAc(b1-6)GalNAc): 0.335
- glycan array binding signal (z-score) [10]: -0.63
- glycan array binding signal (z-score) (Kdn(a2-3)Gal(b1-3)GalNAc): -0.399
- glycan array binding signal (z-score) (Kdn(a2-3)Gal(b1-3)GlcNAc): -0.537
- glycan array binding signal (z-score) (Kdn(a2-3)Gal(b1-4)Glc): -0.306
- glycan array binding signal (z-score) (Kdn(a2-3)Gal(b1-4)GlcNAc): -0.294
- glycan array binding signal (z-score) [11]: 2.05
- glycan array binding signal (z-score) (Kdn(a2-6)Gal(b1-4)GlcNAc): -0.702
- glycan array binding signal (z-score) [12]: -0.899
- glycan array binding signal (z-score) [13]: -0.563
- glycan array binding signal (z-score) (Man(a1-2)Man(a1-3)Man): -0.825
- glycan array binding signal (z-score) [14]: -1.08
- glycan array binding signal (z-score) [15]: -0.723
- glycan array binding signal (z-score) [16]: -0.63
- glycan array binding signal (z-score) [17]: -0.499
- glycan array binding signal (z-score) [18]: -0.659
- glycan array binding signal (z-score) [19]: -0.229
- glycan array binding signal (z-score) (Man(a1-3)[Man(a1-6)]Man): -0.341
- glycan array binding signal (z-score) [20]: 0.878
- glycan array binding signal (z-score) [21]: -0.722
- glycan array binding signal (z-score) [22]: 3.61
- glycan array binding signal (z-score) [23]: -0.876
- glycan array binding signal (z-score) [24]: -0.696
- glycan array binding signal (z-score) (Man(a1-6)Man): -0.521
- glycan array binding signal (z-score) (Man(b1-4)GlcNAc): -0.28
- glycan array binding signal (z-score) (MurNAc(b1-4)GlcNAc): -0.417
- glycan array binding signal (z-score) (Neu5Ac(a2-3)Gal): -0.779
